Test results from patent US6911537B2, “Xenobiotic compound modulated expression systems and uses therefor” (The Salk Institute for Biological Studies, priority 1998, dated 2005).

Molecular target: T1, SXR (Homo sapiens, UniProt O75469)
T1 sequence (O75469 1-434): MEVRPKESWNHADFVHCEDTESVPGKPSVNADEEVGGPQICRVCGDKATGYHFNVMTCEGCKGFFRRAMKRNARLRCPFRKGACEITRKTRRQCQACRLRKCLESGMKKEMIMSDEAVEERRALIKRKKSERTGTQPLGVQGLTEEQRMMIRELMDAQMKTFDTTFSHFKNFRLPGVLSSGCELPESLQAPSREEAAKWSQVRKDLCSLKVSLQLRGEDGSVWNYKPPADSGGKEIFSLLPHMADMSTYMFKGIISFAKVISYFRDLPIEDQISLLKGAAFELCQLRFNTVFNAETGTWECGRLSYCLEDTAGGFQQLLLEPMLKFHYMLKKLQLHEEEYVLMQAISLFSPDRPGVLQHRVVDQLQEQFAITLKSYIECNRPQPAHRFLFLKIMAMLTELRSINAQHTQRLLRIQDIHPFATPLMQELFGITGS
T1 sequence (P19793 1-462 partner): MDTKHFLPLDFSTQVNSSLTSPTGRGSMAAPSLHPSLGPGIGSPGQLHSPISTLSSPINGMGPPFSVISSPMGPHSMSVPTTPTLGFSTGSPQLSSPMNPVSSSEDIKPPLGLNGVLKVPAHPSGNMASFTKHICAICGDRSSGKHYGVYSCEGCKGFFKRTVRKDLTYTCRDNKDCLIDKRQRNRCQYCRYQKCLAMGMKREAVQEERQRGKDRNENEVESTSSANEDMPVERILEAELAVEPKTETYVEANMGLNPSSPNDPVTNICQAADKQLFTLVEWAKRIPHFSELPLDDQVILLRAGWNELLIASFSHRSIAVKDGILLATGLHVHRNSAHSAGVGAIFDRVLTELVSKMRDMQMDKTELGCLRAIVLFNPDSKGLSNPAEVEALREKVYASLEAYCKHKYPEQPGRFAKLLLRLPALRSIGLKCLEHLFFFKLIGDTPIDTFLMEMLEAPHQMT

## COC(=O)C1=C(C)NC(C)=C(C(=O)OC)C1c1ccccc1[N+](=O)[O-] [nifedipine]
  Activation of human SXR by compounds known to induce CYP3A4: most potent activators
